The source holds more than one record for some entries. They are shown here; other results are not. The source may hold further records. Values given together differ for a reason that is not stated; some may be repeats, others may stem from another dose, organism or construct than stated.
System: Caco-2: endogenous transporters

In the case of `CO[C@H]1/C=C/O[C@@]2(C)Oc3c(C)c(O)c4c(=O)c(c5oc6cc(OCCN(C)C)cc(O)c6nc-5c4c3C2=O)NC(=O)/C(C)=C\C=C\[C@H](C)[C@H](O)[C@@H](C)[C@@H](O)[C@@H](C)[C@H](OC(C)=O)[C@@H]1C`, the recovery is reported as 16.3% and 58.3%.

From paper PMC10766536 (The Journal of Antibiotics, 2023)
